Experimental data taken from the supplement of paper PMC4604168 (melanoma cell lines).
Some of the results follow. Single values are uncertain, as repeats are few or missing.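 Cells were imaged in 1,536-well plates, and nuclei stained with an antibody against cleaved PARP were counted against all DNA-stained nuclei to give the apoptosis fraction. Screening doses were chosen to leave most cells alive, and resting and induced cleaved-PARP levels differ strongly between cell lines.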

What was measured:
Assay in all cases: cleaved PARP positive nuclei fraction relative to DMSO control; melanoma cells; higher = more apoptosis
Details in all cases: library dose: low library concentration; 72 h
WM115 = tested on: WM115
WM1716 = tested on: WM1716
WM1745 = tested on: WM1745
WM3526 = tested on: WM3526
WM3619 = tested on: WM3619
WM451Lu = tested on: WM451Lu

Row | SMILES | cleaved PARP positive nuclei fraction (WM115) | cleaved PARP positive nuclei fraction (WM1716) | cleaved PARP positive nuclei fraction (WM1745) | cleaved PARP positive nuclei fraction (WM3526) | cleaved PARP positive nuclei fraction (WM3619) | cleaved PARP positive nuclei fraction (WM451Lu)
1 | Cn1sc(=O)n(Cc2ccccc2)c1=O + COc1ccc(Cl)c(Nc2nc3ccccc3nc2NS(=O)(=O)c2cccc(NC(=O)C(C)(C)N)c2)c1 [XL147] (first compound 0.4 µM, partner dose 0.8 µM) | 75.6% | 82.4% | 98.3% | 36.4% | 95.1% | 71.5%
2 | CC1(C)CCC(c2ccc(Cl)cc2)=C(CN2CCN(c3ccc(C(=O)NS(=O)(=O)c4ccc(N[C@H](CCN5CCOCC5)CSc5ccccc5)c(S(=O)(=O)C(F)(F)F)c4)cc3)CC2)C1 + O=C(CCCCCCC(=O)Nc1ccccc1)NO [vorinostat] (first compound 0.4 µM, partner dose 0.08 µM) | 146% | 200% | 759% | 61.6% | 78.8% | 36.1%
3 | CS(=O)(=O)c1ccc(C(=O)Nc2ccc(Cl)c(-c3ccccn3)c2)c(Cl)c1 [vismodegib] + COCC[n+]1c2c(n(Cc3cnccn3)c1C)C(=O)c1ccccc1C2=O [YM155] (first compound 1 µM, partner dose 0.0004 µM) | 145% | 168% | 95.9% | 46.6% | 104% | 110%
4 | CC(=O)O[C@@]12CO[C@@H]1C[C@H](O)[C@@]1(C)C(=O)[C@H](O)C3=C(C)[C@@H](OC(=O)[C@H](O)[C@@H](NC(=O)OC(C)(C)C)c4ccccc4)C[C@@](O)([C@@H](OC(=O)c4ccccc4)[C@H]21)C3(C)C [Docetaxel] + Oc1cc(-c2nc(-c3ccccc3)[nH]c2-c2ccncc2)ccc1Cl [L779450] (first compound 0.0001 µM, partner dose 0.2 µM) | 754% | 710% | 213% | 403% | 142% | 189%
5 | CCN(CC)CCNC(=O)c1c(C)[nH]c(/C=C2\C(=O)Nc3ccc(F)cc32)c1C [sunitinib] + Nc1ccn([C@@H]2O[C@H](CO)[C@@H](O)C2(F)F)c(=O)n1 [gemcitabine] (first compound 0.4 µM, partner dose 0.0004 µM) | 108% | 47.6% | 123% | 65.7% | 110% | 281%
6 | NC1(c2ccc(-c3nc4ccn5c(=O)[nH]nc5c4cc3-c3ccccc3)cc2)CCC1 + CC1(C)NC(=O)N(c2ccc([N+](=O)[O-])c(C(F)(F)F)c2)C1=O [nilutamide] (first compound 0.4 µM, partner dose 1 µM) | 74.6% | 60.2% | 94.4% | 73.8% | 90.2% | 51.2%
7 | C[C@@H](N)c1ccc(C(=O)Nc2ccnc3[nH]ccc23)cc1 + CC(C)CCN1c2nc(Nc3cc(F)c(O)c(F)c3)ncc2N(C)C(=O)C1C [BID1870] (first compound 0.4 µM, partner dose 0.2 µM) | 46.7% | 64.6% | 98% | 73.1% | 75.9% | 73.5%
8 | Cn1cnc2c(F)c(Nc3ccc(Br)cc3Cl)c(C(=O)NOCCO)cc21 [selumetinib] + CS(=O)(=O)c1ccc(C(=O)Nc2ccc(Cl)c(-c3ccccn3)c2)c(Cl)c1 [vismodegib] (first compound 0.015 µM, partner dose 1 µM) | 164% | 182% | 108% | 37.3% | 124% | 22.7%
9 | CN(c1ncccc1CNc1nc(Nc2ccc3c(c2)CC(=O)N3)ncc1C(F)(F)F)S(C)(=O)=O + C=C(c1ccc(C(=O)O)cc1)c1cc2c(cc1C)C(C)(C)CCC2(C)C [Bexarotene] (first compound 0.08 µM, partner dose 2 µM) | 168% | 178% | 123% | 104% | 83.3% | 132%
10 | Cn1cnc2c(F)c(Nc3ccc(Br)cc3Cl)c(C(=O)NOCCO)cc21 [selumetinib] + Nc1ccn([C@@H]2O[C@H](CO)[C@@H](O)C2(F)F)c(=O)n1 [gemcitabine] (first compound 0.015 µM, partner dose 0.0004 µM) | 113% | 117% | 119% | 82.5% | 123% | 137%
11 | Cn1sc(=O)n(Cc2ccccc2)c1=O + NC(=O)Nc1cc(-c2cccc(F)c2)sc1C(=O)N[C@H]1CCCNC1 [AZD7762] (first compound 0.4 µM, partner dose 0.02 µM) | 133% | 88% | 83.8% | 246% | 223% | 78.4%
12 | CS(=O)(=O)c1ccc(C(=O)Nc2ccc(Cl)c(-c3ccccn3)c2)c(Cl)c1 [vismodegib] + Clc1ccc(Nc2nnc(Cc3ccncc3)c3ccccc23)cc1 [vatalanib] (first compound 1 µM, partner dose 2 µM) | 113% | 166% | 121% | 72.9% | 95.7% | 91.6%

Part of the list above in a different format.
CN(c1ncccc1CNc1nc(Nc2ccc3c(c2)CC(=O)N3)ncc1C(F)(F)F)S(C)(=O)=O + C=C(c1ccc(C(=O)O)cc1)c1cc2c(cc1C)C(C)(C)CCC2(C)C [Bexarotene] (first compound 0.08 µM, partner dose 2 µM)
  cleaved PARP positive nuclei fraction (WM115): 168%
  cleaved PARP positive nuclei fraction (WM1716): 178%
  cleaved PARP positive nuclei fraction (WM1745): 123%
  cleaved PARP positive nuclei fraction (WM3526): 104%
  cleaved PARP positive nuclei fraction (WM3619): 83.3%
  cleaved PARP positive nuclei fraction (WM451Lu): 132%
Cn1cnc2c(F)c(Nc3ccc(Br)cc3Cl)c(C(=O)NOCCO)cc21 [selumetinib] + Nc1ccn([C@@H]2O[C@H](CO)[C@@H](O)C2(F)F)c(=O)n1 [gemcitabine] (first compound 0.015 µM, partner dose 0.0004 µM)
  cleaved PARP positive nuclei fraction (WM115): 113%
  cleaved PARP positive nuclei fraction (WM1716): 117%
  cleaved PARP positive nuclei fraction (WM1745): 119%
  cleaved PARP positive nuclei fraction (WM3526): 82.5%
  cleaved PARP positive nuclei fraction (WM3619): 123%
  cleaved PARP positive nuclei fraction (WM451Lu): 137%
